For this experiment, the system named is LPS-induced NF-κB activation in 70Z/3-C3 cells. The experiment is described as follows: NF-κB inhibition assay, second more stringent procedure (peptide washed out, 24 h growth before LPS). Type of experiment: cell-based, murine. The following applies: 10 μM peptide. The text has this:
FIG. 4: Specific Inhibition of NF-κB Activation in Response to LPS Depends on a Few Mutations in the Hydrophobic Core of CC2 and LZ Coiled-Coils Left panels show a helical wheel diagram of CC2 (A) and LZ (B) peptides. The view is from the top the molecule. The (a) through (g) positions, which are an essential feature of coiled coil sequence (Vinson, 2002, Mol. Cell. Biol.) represent sequential positions in each peptide sequence. The first (a) and fourth (d) positions that are generally occupied by hydrophobic amino acids constitute the hydrophobic core for parallel as well as antiparallel-coiled coils. […] NF-κB activity was measured using the β-galactosidase assay. […]
FIG. 5: Inhibition of NF-κB Activation by the LZ Peptide Occurs Through the Formation of Specific Coiled-Coil Strands. […] NF-κB activity was measured using the β-galactosidase assay. […]

Results on 1 substance are retold here after patent publication US7700553B2, “Selective inhibition of NF-κB activation by peptides designed to disrupt nemo oligomerization” (priority 2003, dated 2010).

“B-CRQIKIWFQNRRMKWKKSKGMQRMKQLEDKVEELLSKNYHLENEVARLKKLVGER (N-terminal BODIPY label) [BODIPY-Ant-GCN4 (WT), control coiled-coil peptide that mimics the GCN4 leucine zipper, antennapedia fusion, reference compound]”: the “effect on LPS-induced NF-κB activation (in words)” value is reported as “no ability to inhibit NF-κB activation”.
